In the supplement of paper PMC10849652 one finds log2 fold change data, which are given here for 35 targets.

By UniProt entry, the sequences of proteins in these tests, tags left out. Where a name states a change or a piece, a line headed by the entry shows the natural chain unless it says otherwise.
UniProt Q9P2K8: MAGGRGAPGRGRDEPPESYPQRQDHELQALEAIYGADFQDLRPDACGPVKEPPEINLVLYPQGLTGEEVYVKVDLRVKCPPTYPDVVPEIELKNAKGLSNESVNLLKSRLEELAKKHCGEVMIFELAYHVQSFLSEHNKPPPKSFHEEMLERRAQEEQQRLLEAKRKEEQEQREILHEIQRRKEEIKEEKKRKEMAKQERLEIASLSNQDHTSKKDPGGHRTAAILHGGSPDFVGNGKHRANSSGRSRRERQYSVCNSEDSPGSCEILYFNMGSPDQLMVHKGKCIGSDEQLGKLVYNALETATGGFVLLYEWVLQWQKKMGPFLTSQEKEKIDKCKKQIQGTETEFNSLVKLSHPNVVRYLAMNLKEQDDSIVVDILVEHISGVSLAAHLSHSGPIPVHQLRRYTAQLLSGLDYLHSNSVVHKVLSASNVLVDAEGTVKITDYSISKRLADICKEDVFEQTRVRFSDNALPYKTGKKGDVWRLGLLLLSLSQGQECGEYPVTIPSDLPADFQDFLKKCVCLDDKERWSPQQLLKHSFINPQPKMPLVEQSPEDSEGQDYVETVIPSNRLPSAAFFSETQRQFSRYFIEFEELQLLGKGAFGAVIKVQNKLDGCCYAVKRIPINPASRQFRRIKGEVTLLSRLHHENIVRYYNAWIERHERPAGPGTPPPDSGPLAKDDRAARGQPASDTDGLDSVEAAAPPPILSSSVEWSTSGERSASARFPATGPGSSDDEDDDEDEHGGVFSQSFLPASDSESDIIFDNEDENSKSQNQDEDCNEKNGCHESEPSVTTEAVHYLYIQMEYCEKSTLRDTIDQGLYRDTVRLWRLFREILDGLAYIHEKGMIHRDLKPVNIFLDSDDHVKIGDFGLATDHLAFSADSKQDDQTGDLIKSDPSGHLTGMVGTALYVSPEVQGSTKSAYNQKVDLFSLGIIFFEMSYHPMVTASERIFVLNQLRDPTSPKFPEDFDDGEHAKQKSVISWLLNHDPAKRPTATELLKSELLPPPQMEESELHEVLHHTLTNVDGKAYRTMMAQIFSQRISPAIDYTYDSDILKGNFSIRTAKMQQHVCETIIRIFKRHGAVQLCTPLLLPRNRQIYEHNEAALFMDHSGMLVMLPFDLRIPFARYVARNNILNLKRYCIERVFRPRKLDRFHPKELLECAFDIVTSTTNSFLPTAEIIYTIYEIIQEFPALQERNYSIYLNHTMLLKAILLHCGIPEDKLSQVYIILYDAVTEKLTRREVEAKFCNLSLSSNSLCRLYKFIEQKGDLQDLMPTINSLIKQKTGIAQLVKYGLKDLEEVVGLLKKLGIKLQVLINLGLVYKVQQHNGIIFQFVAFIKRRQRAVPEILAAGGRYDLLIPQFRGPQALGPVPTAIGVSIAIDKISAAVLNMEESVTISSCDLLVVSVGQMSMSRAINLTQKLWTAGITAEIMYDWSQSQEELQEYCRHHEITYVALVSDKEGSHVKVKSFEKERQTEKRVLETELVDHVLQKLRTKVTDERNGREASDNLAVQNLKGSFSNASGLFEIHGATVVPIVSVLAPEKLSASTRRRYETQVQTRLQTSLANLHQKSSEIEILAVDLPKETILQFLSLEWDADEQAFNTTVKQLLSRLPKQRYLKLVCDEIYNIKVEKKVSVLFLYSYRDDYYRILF
UniProt Q9P0I2: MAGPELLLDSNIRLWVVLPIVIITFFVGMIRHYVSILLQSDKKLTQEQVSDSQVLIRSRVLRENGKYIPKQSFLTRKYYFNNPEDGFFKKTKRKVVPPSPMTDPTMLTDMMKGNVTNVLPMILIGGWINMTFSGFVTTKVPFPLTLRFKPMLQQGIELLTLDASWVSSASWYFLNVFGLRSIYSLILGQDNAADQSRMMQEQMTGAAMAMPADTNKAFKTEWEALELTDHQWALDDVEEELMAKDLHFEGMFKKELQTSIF
UniProt P54852: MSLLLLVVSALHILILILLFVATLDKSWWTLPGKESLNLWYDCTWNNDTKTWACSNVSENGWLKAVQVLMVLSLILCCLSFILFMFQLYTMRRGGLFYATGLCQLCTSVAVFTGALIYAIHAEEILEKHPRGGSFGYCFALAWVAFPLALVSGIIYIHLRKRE
UniProt Q5J8M3, whole entry, looked up: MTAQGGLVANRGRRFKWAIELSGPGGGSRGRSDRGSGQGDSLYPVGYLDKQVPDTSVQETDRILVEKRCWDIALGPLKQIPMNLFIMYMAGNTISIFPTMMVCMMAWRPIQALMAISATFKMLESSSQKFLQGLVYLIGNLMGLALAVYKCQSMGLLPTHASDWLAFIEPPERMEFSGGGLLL
UniProt Q9Y2J2, whole entry, looked up: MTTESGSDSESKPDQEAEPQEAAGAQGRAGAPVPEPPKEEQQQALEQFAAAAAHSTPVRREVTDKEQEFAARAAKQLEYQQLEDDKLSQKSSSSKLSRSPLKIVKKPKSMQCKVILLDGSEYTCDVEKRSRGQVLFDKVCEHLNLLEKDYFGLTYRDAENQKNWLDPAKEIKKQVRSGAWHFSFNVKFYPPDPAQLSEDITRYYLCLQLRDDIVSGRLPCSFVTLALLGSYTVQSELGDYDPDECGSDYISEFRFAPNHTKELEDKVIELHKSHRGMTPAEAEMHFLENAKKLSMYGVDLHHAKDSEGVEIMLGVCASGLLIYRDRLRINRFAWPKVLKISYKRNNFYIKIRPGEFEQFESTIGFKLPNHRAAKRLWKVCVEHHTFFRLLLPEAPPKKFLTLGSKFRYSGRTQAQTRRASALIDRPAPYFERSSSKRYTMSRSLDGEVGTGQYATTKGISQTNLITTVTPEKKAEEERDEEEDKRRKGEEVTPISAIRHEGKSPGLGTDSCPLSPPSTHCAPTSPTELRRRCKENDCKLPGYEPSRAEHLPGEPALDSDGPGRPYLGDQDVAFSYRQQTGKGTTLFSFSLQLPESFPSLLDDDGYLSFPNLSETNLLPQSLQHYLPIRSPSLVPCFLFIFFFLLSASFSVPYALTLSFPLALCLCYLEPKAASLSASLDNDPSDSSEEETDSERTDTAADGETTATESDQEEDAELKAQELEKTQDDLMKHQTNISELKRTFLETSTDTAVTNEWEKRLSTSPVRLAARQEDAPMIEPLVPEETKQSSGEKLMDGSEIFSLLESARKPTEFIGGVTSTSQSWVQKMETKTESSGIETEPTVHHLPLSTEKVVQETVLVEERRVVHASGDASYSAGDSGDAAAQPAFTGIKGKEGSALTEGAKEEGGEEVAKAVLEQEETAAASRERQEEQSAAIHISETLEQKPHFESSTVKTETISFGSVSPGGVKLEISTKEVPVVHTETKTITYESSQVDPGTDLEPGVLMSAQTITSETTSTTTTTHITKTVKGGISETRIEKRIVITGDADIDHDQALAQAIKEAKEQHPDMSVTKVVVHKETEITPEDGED
UniProt Q13542: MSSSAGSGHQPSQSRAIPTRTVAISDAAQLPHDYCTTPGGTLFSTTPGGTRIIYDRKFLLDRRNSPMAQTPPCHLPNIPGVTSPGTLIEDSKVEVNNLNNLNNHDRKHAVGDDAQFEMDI
UniProt Q2NKX8: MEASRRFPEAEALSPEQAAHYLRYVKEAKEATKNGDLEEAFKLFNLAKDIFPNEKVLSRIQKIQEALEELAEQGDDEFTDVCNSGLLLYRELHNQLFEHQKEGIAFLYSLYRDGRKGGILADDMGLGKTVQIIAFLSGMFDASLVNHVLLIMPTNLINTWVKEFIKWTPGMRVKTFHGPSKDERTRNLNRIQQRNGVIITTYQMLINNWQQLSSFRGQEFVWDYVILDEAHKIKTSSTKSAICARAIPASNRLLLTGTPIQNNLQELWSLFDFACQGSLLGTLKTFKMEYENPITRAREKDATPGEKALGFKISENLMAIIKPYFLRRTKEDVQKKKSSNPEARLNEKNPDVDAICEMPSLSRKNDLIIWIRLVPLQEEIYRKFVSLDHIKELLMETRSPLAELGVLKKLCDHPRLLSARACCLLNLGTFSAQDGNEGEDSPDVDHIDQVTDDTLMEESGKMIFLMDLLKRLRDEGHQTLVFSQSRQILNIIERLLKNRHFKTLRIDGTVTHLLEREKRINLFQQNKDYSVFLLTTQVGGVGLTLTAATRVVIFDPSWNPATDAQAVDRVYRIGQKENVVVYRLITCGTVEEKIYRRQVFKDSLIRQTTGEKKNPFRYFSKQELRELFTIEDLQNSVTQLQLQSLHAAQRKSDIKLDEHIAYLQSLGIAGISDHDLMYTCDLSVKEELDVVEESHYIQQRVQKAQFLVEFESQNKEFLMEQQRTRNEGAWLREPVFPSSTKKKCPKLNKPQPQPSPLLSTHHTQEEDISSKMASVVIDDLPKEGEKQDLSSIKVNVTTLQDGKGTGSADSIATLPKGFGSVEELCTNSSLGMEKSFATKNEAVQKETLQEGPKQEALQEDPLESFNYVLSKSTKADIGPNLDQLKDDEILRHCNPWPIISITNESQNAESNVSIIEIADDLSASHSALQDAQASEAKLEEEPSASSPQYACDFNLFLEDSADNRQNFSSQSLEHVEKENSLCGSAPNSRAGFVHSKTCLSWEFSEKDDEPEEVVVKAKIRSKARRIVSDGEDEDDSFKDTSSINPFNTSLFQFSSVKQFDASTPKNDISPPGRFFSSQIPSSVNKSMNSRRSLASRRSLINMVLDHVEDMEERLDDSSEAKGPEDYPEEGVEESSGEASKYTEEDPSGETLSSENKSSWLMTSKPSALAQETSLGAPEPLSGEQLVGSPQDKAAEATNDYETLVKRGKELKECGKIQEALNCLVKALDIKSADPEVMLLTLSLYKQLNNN
UniProt P06730, whole entry, looked up: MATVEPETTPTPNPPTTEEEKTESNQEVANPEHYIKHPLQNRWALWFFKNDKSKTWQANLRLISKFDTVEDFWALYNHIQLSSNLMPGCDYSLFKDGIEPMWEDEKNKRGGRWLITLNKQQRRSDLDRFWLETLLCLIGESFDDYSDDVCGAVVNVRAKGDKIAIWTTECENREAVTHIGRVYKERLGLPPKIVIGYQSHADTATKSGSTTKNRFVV
UniProt Q9BV81: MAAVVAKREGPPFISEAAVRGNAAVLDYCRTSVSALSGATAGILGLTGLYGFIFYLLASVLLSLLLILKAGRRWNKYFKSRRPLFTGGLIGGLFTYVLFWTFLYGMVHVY
UniProt P38919, whole entry, looked up: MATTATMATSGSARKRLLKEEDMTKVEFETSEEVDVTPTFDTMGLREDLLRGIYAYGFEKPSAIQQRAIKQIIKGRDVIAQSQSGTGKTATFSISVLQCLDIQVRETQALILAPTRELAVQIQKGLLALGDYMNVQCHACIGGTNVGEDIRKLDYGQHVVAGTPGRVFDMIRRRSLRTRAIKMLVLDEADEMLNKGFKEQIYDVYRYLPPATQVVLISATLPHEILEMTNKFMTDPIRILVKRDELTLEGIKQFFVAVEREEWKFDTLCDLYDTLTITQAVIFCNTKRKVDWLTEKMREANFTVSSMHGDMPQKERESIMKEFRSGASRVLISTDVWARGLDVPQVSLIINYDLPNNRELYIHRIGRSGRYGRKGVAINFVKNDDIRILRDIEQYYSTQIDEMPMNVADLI
UniProt P60228, whole entry, looked up: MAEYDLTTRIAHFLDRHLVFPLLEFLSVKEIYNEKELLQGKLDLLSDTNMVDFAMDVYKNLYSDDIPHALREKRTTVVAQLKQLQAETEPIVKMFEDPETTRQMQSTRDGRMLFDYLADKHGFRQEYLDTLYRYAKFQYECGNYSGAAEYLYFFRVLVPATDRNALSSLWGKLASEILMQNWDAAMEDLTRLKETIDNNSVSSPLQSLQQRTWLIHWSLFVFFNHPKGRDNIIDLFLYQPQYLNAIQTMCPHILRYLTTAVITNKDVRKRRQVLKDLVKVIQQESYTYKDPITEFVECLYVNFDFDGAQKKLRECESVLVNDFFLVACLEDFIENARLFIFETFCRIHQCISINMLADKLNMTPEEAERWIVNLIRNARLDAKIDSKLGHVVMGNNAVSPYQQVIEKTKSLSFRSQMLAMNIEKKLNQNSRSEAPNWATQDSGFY
UniProt P34913, whole entry, looked up: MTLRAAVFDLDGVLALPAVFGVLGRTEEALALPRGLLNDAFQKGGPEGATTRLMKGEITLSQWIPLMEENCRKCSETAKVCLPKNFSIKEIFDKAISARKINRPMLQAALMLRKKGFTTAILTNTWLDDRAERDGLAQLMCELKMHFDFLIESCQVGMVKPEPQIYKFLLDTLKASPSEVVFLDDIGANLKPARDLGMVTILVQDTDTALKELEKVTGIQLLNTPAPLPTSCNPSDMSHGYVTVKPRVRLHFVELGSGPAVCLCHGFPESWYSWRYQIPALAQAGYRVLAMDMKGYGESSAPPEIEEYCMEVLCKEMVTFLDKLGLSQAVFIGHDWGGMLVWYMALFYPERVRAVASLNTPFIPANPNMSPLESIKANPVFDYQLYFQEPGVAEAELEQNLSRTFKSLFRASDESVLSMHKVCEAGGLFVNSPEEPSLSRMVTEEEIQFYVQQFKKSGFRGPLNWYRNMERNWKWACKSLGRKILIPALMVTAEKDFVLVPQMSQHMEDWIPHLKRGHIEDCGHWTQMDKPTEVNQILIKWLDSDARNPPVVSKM
UniProt Q15369, whole entry, looked up: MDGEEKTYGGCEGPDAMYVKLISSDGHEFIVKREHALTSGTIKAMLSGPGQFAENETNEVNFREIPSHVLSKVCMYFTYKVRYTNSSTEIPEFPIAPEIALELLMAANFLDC

Some of the results follow.

Compound in one assay: COC(=O)[C@H](CCSC)NC(=O)C1=C(C=C(C=C1)NC[C@H](CS)N)C2=CC=CC=C2
Kind of assay: log2 fold change, soluble protein after heating vs DMSO (PISA); higher = thermal stabilisation; K562 lysate, 10 uM; active = over 0.2 and 3.5 SD of the protein, either way, in both replicates (recomputed). In outline:
(§1)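 Values give the log-two fold change in thermal stability against solvent controls, from duplicates. Crude K562 extract at 1 mg/mL protein, made by dounce homogenisation in PBS pH 7.4 with 1 mM MgCl2, was treated with 10 μM compound for 30 min. After 3 min heating across 48°C-58°C, aliquots were pooled, adjusted to 0.5% NP-40 at 4°C and centrifuged at 21,000xg for 90 min. The supernatant was measured by TMTpro 16plex LC-MS/MS with channel sums equalised.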
Regarding EIF2AK4 (UniProt Q9P2K8), the log2 fold change was inactive: 0.017.

Regarding EMC3 (UniProt Q9P0I2), the log2 fold change was inactive: -0.016.

EMP3 (UniProt P54852): the log2 fold change was inactive: 0.022.

EMC4 (UniProt Q5J8M3): the log2 fold change is inactive: -0.011.

As for EPB41L3 (UniProt Q9Y2J2), the log2 fold change was inactive: -0.023.

Regarding EIF4EBP2 (UniProt Q13542), the log2 fold change is inactive: 0.025.

As to ERCC6L (UniProt Q2NKX8), the log2 fold change is inactive: 0.093.

For EIF4E isoform 2 (UniProt P06730), the log2 fold change is inactive: 0.075.

For EMC6 (UniProt Q9BV81), the log2 fold change was inactive: -0.029.

Regarding EIF4A3 (UniProt P38919), the log2 fold change is inactive: 0.039.

For the target EIF3E (UniProt P60228), the log2 fold change was inactive: 0.103.

Take EPHX2 (UniProt P34913): the log2 fold change is inactive: -0.058.

Compound in the next assay: COc1cc(Nc2ncc3c(n2)-c2ccc(Cl)cc2C(c2c(F)cccc2OC)=NC3)ccc1C(=O)O [alisertib]
The assay is described as above. Put shortly: as §1
For the target EPB41L1 (UniProt Q9H4G0), the log2 fold change was inactive: -0.081.

As for ELAC2 (UniProt Q9BQ52), the log2 fold change was inactive: -0.02.

Consider EIF4B (UniProt P23588), for which the log2 fold change is inactive: 0.009.

Consider EIF3F (UniProt O00303), for which the log2 fold change was inactive: 0.002.

Turning to EIF2D (UniProt P41214), the log2 fold change was inactive: 0.013.

As for EMC2 (UniProt Q15006), the log2 fold change was inactive: 0.

For EP300 (UniProt Q09472), the log2 fold change was inactive: -0.121.

As to EIF5B (UniProt O60841), the log2 fold change was inactive: -0.003.

On to ERCC2 (UniProt P18074), for which the log2 fold change was inactive: 0.023.

EMC10 (UniProt Q5UCC4): the log2 fold change was inactive: -0.033.

On to EML2 isoform 3 (UniProt O95834), for which the log2 fold change is inactive: -0.026.

For EMC8 (UniProt O43402), the log2 fold change was inactive: -0.036.

Turning to EIF3D (UniProt O15371), the log2 fold change is inactive: 0.015.

Regarding ENGASE (UniProt Q8NFI3), the log2 fold change was inactive: 0.025.

On to EPS15L1 isoform 2 (UniProt Q9UBC2), for which the log2 fold change is inactive: -0.02.

With EP400P1 isoform 6 (UniProt Q6ZTU2), the log2 fold change was inactive: -0.01.

ENTPD5 (UniProt O75356): the log2 fold change is inactive: -0.027.

On to ELP6 (UniProt Q0PNE2), for which the log2 fold change is inactive: 0.023.

With EIF2B5 (UniProt Q13144), the log2 fold change was inactive: -0.004.

In the case of EIF3G (UniProt O75821), the log2 fold change is inactive: 0.008.

For ELOC (UniProt Q15369), the log2 fold change was inactive: 0.023.

For EML3 (UniProt Q32P44), the log2 fold change was inactive: 0.011.

In the case of ELOA (UniProt Q14241), the log2 fold change is inactive: 0.013.

With EIF2AK4 (UniProt Q9P2K8), the log2 fold change was inactive: -0.006.

Regarding EMC3 (UniProt Q9P0I2), the log2 fold change was inactive: 0.047.

Consider EMP3 (UniProt P54852), for which the log2 fold change was inactive: 0.053.

Take EMC4 (UniProt Q5J8M3): the log2 fold change was inactive: 0.012.

Regarding EPB41L3 (UniProt Q9Y2J2), the log2 fold change was inactive: 0.013.

As for EIF4EBP2 (UniProt Q13542), the log2 fold change was inactive: 0.061.

For the target ERCC6L (UniProt Q2NKX8), the log2 fold change was inactive: -0.01.

Consider EIF4E isoform 2 (UniProt P06730), for which the log2 fold change was inactive: 0.01.

EMC6 (UniProt Q9BV81): the log2 fold change was inactive: -0.235.

Turning to EIF4A3 (UniProt P38919), the log2 fold change is inactive: 0.019.

For EIF3E (UniProt P60228), the log2 fold change was inactive: 0.029.

On to EPHX2 (UniProt P34913), for which the log2 fold change is inactive: -0.045.

Compound in the next assay: COc1cc2nc(-c3cc(F)ccc3O)nc(N[C@@H]3CNC[C@H]3C(C)(C)O)c2cc1OC
The assay is described as above. Put shortly:
as §1
Turning to EPB41L1 (UniProt Q9H4G0), the log2 fold change is inactive: -0.049.

Take ELAC2 (UniProt Q9BQ52): the log2 fold change is inactive: -0.002.

Consider EIF4B (UniProt P23588), for which the log2 fold change is inactive: -0.006.

Take EIF3F (UniProt O00303): the log2 fold change is inactive: 0.019.

As for EIF2D (UniProt P41214), the log2 fold change was inactive: -0.018.

EMC2 (UniProt Q15006): the log2 fold change is inactive: 0.02.

Regarding EP300 (UniProt Q09472), the log2 fold change is inactive: -0.056.

EIF5B (UniProt O60841): the log2 fold change was inactive: 0.004.

With ERCC2 (UniProt P18074), the log2 fold change is inactive: -0.001.

On to EMC10 (UniProt Q5UCC4), for which the log2 fold change is inactive: -0.048.

Take EML2 isoform 3 (UniProt O95834): the log2 fold change is inactive: -0.037.

Regarding EMC8 (UniProt O43402), the log2 fold change was inactive: 0.009.

Take EIF3D (UniProt O15371): the log2 fold change was inactive: 0.004.

ENGASE (UniProt Q8NFI3): the log2 fold change was inactive: -0.015.

EPS15L1 isoform 2 (UniProt Q9UBC2): the log2 fold change is inactive: 0.013.

As to EP400P1 isoform 6 (UniProt Q6ZTU2), the log2 fold change is inactive: 0.009.

For ENTPD5 (UniProt O75356), the log2 fold change is inactive: 0.067.

In the case of ELP6 (UniProt Q0PNE2), the log2 fold change was inactive: -0.013.

As for EIF2B5 (UniProt Q13144), the log2 fold change was inactive: 0.005.

In the case of EIF3G (UniProt O75821), the log2 fold change was inactive: -0.002.

For the target ELOC (UniProt Q15369), the log2 fold change is inactive: -0.046.

For the target EML3 (UniProt Q32P44), the log2 fold change was inactive: 0.004.

In the case of ELOA (UniProt Q14241), the log2 fold change was inactive: -0.036.

For EIF2AK4 (UniProt Q9P2K8), the log2 fold change is inactive: -0.007.

As for EMC3 (UniProt Q9P0I2), the log2 fold change is inactive: -0.013.

On to EMP3 (UniProt P54852), for which the log2 fold change was inactive: 0.052.

For EMC4 (UniProt Q5J8M3), the log2 fold change is inactive: 0.002.

Turning to EPB41L3 (UniProt Q9Y2J2), the log2 fold change is inactive: -0.028.

With EIF4EBP2 (UniProt Q13542), the log2 fold change is inactive: -0.027.

For ERCC6L (UniProt Q2NKX8), the log2 fold change was inactive: -0.017.

As to EIF4E isoform 2 (UniProt P06730), the log2 fold change was inactive: -0.034.

Regarding EMC6 (UniProt Q9BV81), the log2 fold change is inactive: -0.081.

As to EIF4A3 (UniProt P38919), the log2 fold change was inactive: 0.018.

Consider EIF3E (UniProt P60228), for which the log2 fold change was inactive: -0.024.

In the case of EPHX2 (UniProt P34913), the log2 fold change was inactive: -0.007.
